US20250064840A1, “DRUG DELIVERY SYSTEMS BASED ON ENDOPEROXIDES USEFUL IN DIAGNOSIS AND THERAPY, AND METHODS THEREOF” (FACULDADE DE FARMÁCIA DA UNIVERSIDADE DE LISBOA, priority 2021, published 2025)
Some of these results come from one statement about several compounds together.

Test: Fluorescence quantum yields determination
Type: physicochemical
Settings: water with 30% DMSO; standard fluorescein in 0.1 M sodium hydroxide

For `COc1cccc2c1C(=O)c1c(O)c3c(c(O)c1C2=O)C[C@](O)(C(=O)CO)C[C@H]3O[C@@H]1CC(NC(=O)OC2CCCC3(C2)OOC2(OO3)C3CC4CC(C3)CC2C4)[C@@H](O)[C@@H](C)O1` (stereo partly shown) [IIc], which fluorescence quantum yield is on record?
The fluorescence quantum yield was “below 1%”.
